PubChem BioAssay AID493246 – Drosophila RNAi Screening Center, 2011

Test: 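Genome-wide search for dsRNAs that reduce cell number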 (primary screen)
Cells: Drosophila Kc and S2R+ cells
Knock-down reagent: long dsRNA against Drosophila genes
Measured: 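Raw, unnormalised count of remaining cells in each well; per-plate z-scores of cell number underlie the calls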
Scale: Kc cell number and S2R+ cell number: higher = more cells remaining
Call rule: 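Counted as a hit if cell number falls by a z-score of at least 3 within its plate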
The screen tested about 21,000 reagents; below is an unselected part of those that have a named target and a result. Over the whole deposit, 429 (2%) got an active call. 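Values are raw and not normalised between plates; calls rest on per-plate z-scores that were not deposited.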 Unmarked entries are inactive. The numbers tell different reagents against one gene apart. No sequences are given here. Not given: the amount of reagent, the time to read-out.

gene knocked down,dsRNA no.,"Kc cell number, rep 1","Kc cell number, rep 2","S2R+ cell number, rep 1","S2R+ cell number, rep 2"
CG14744,1,1.66e6,1.64e6,1.31e6,1.51e6
CG9259,1,1.60e6,1.71e6,1.31e6,4.68e5
Rrp5 (Ribosomal RNA Processing 5),1,1.44e6,1.56e6,1.11e6,1.16e6
CkIalpha (Casein kinase Ialpha),1,1.58e6,1.56e6,8.45e5,9.32e5
CG12995,1,1.53e6,1.58e6,1.18e6,1.29e6
CG32576,1,1.43e6,1.72e6,1.05e6,1.18e6
CG17834,1,1.32e6,1.16e6,1.06e6,1.11e6
Shal (Shaker cognate l),1,1.44e6,1.54e6,1.09e6,1.21e6
Shal (Shaker cognate l),2,1.41e6,1.49e6,1.24e6,1.35e6
lectin-33A,1,1.47e6,1.56e6,1.20e6,1.31e6
CG15368,1,1.53e6,1.51e6,9.77e5,1.11e6
Hml (Hemolectin),1,1.58e6,1.73e6,1.58e6,1.59e6
Theg (Testicular haploid expressed gene),1,1.51e6,1.60e6,1.26e6,1.28e6

Quoted from the listing for reference:
gene knocked down,dsRNA no.,"Kc cell number, rep 1","Kc cell number, rep 2","S2R+ cell number, rep 1","S2R+ cell number, rep 2"
CkIalpha (Casein kinase Ialpha),1,1.58e6,1.56e6,8.45e5,9.32e5
CG12995,1,1.53e6,1.58e6,1.18e6,1.29e6
CG32576,1,1.43e6,1.72e6,1.05e6,1.18e6
CG17834,1,1.32e6,1.16e6,1.06e6,1.11e6

Next reagents follow:
gene knocked down,dsRNA no.,"Kc cell number, rep 1","Kc cell number, rep 2","S2R+ cell number, rep 1","S2R+ cell number, rep 2"
Atpalpha (Na pump alpha subunit),1,1.64e6,1.76e6,1.23e6,1.33e6
obst-B (obstructor-B),1,1.34e6,1.38e6,1.28e6,1.30e6
sofe,1,5.58e5,,7.70e5,
Acsf3 (Acyl-CoA synthetase family member 3),1,1.65e6,1.72e6,1.13e6,1.35e6
CG15483,1,1.57e6,1.65e6,1.23e6,1.38e6
CG17684,1,5.62e5,,7.65e5,
CG17684,2,1.45e6,1.48e6,1.04e6,1.09e6
CR42546 (pseudo),1,1.49e6,1.50e6,1.25e6,3.01e5
dao (down and out),1,1.53e6,1.61e6,1.19e6,1.33e6
CG14110,1,1.58e6,1.66e6,1.41e6,1.60e6
Wdr37 (WD repeat domain 37),1,1.51e6,1.61e6,1.31e6,1.39e6
Pmvk (Phosphomevalonate kinase),1,1.63e6,1.68e6,1.37e6,5.66e5
Alp2 (Alkaline phosphatase 2),1,1.56e6,1.72e6,1.27e6,4.51e5
Ir7g (Ionotropic receptor 7g),1,1.52e6,1.43e6,9.85e5,1.12e6
LysRS (Lysyl-tRNA synthetase),1,5.58e5,,9.18e5,
lectin-24Db,1,1.30e6,1.44e6,1.24e6,1.24e6
CG40486,1,1.69e6,1.74e6,1.04e6,1.18e6
"PheRS-m (Phenylalanyl-tRNA synthetase, mitochondrial)",1,1.48e6,1.50e6,1.20e6,1.20e6
CG4766,1,1.67e6,1.63e6,1.08e6,1.20e6
"E(spl)m3-HLH (Enhancer of split m3, helix-loop-helix)",1,1.34e6,1.36e6,6.92e5,7.66e5
CG7632,1,1.51e6,1.57e6,1.23e6,1.35e6
Art9 (Arginine methyltransferase 9),1,1.26e6,1.30e6,1.20e6,1.40e6
Pyroxd1 (Pyridine nucleotide-disulfide oxidoreductase domain 1),1,1.57e6,1.62e6,1.21e6,3.06e5
Cpr30F (Cuticular protein 30F),1,1.57e6,1.64e6,1.17e6,1.23e6
CG5104,1,1.37e6,1.39e6,1.34e6,1.44e6
CG12853,1,1.53e6,1.58e6,1.15e6,1.34e6
wake (wide awake),1,1.60e6,1.54e6,9.95e5,1.07e6
wake (wide awake),2,1.52e6,1.47e6,9.96e5,1.08e6
